According to article PMC7275063:
Results are given in words; binding and its absence hold for the method and conditions named. Binding seen in cells or lysates may run through a third protein. Where a sequence is shown, tags or fusion partners need not be part of it.

By UniProt entry, the sequences of proteins in these tests, tags left out.
UniProt Q6PHN9: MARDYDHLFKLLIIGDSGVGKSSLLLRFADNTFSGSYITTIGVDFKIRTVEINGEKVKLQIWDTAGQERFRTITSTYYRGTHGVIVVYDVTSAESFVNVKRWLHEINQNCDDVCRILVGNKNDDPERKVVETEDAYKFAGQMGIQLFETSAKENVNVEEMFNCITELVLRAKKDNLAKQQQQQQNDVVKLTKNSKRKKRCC

How the values were obtained:
GST-Rab35 (mouse) [1] = target: GST-Rab35 (mouse) (UniProt Q6PHN9); experiment: pull-down; immobilised active GST-Rab35•GTP; lysates of HEK293T cells co-expressing eGFP-MTM1, -MTMR1 or -MTMR2 with FLAG-MTMR13; immunoblot; only the target purified
GST-Rab35 (mouse) [2] = target: GST-Rab35 (mouse) (UniProt Q6PHN9); experiment: pull-down; 100 µg GST-Rab fusion on GST-bind beads loaded with 1 mM GTPγS; lysates of HEK293T cells overexpressing one tagged MTMR on its own; 2 h at 4 °C; immunoblot for eGFP or FLAG; only the target purified
GST-Rab35 (mouse) [3] = target: GST-Rab35 (mouse) (UniProt Q6PHN9); experiment: pull-down; GST-Rab35•GTP; MTM1, MTMR1 or MTMR2 co-expressed with MTMR5 (Supplementary Fig. 1d-f); only the target purified

binding (GST-Rab35 (mouse) [1]): no binding
binding (GST-Rab35 (mouse) [2]): no binding
binding (GST-Rab35 (mouse) [3]): no binding
B1: eGFP-MTM1 (protein, UniProt Q13496 1-603)
chain: MASASTSKYNSHSLENESIKRTSRDGVNRDLTEAVPRLPGETLITDKEVIYICPFNGPIKGRVYITNYRLYLRSLETDSSLILDVPLGVISRIEKMGGATSRGENSYGLDITCKDMRNLRFALKQEGHSRRDMFEILTRYAFPLAHSLPLFAFLNEEKFNVDGWTVYNPVEEYRRQGLPNHHWRITFINKCYELCDTYPALLVVPYRASDDDLRRVATFRSRNRIPVLSWIHPENKTVIVRCSQPLVGMSGKRNKDDEKYLDVIRETNKQISKLTIYDARPSVNAVANKATGGGYESDDAYHNAELFFLDIHNIHVMRESLKKVKDIVYPNVEESHWLSSLESTHWLEHIKLVLTGAIQVADKVSSGKSSVLVHCSDGWDRTAQLTSLAMLMLDSFYRSIEGFEILVQKEWISFGHKFASRIGHGDKNHTDADRSPIFLQFIDCVWQMSKQFPTAFEFNEQFLIIILDHLYSCRFGTFLFNCESARERQKVTERTVSLWSLINSNKEKFKNPFYTKEINRVLYPVASMRHLELWVNYYIRWNPRIKQQQPNPVEQRYMELLALRDEYIKRLEELQLANSAKLSDPPTSPSSPSQMMPHVQTHF
